Assay results: publication PMC9136110
These are yes or no findings as the source states them, for the method shown. In cells and extracts the contact can be indirect. A result given as binding can be weak or reduced; the word gives no strength.

Amino acid sequences for entries named in this document (tags omitted). A change or cut given only in a name is not applied to a line headed by its entry.
UniProt P45481: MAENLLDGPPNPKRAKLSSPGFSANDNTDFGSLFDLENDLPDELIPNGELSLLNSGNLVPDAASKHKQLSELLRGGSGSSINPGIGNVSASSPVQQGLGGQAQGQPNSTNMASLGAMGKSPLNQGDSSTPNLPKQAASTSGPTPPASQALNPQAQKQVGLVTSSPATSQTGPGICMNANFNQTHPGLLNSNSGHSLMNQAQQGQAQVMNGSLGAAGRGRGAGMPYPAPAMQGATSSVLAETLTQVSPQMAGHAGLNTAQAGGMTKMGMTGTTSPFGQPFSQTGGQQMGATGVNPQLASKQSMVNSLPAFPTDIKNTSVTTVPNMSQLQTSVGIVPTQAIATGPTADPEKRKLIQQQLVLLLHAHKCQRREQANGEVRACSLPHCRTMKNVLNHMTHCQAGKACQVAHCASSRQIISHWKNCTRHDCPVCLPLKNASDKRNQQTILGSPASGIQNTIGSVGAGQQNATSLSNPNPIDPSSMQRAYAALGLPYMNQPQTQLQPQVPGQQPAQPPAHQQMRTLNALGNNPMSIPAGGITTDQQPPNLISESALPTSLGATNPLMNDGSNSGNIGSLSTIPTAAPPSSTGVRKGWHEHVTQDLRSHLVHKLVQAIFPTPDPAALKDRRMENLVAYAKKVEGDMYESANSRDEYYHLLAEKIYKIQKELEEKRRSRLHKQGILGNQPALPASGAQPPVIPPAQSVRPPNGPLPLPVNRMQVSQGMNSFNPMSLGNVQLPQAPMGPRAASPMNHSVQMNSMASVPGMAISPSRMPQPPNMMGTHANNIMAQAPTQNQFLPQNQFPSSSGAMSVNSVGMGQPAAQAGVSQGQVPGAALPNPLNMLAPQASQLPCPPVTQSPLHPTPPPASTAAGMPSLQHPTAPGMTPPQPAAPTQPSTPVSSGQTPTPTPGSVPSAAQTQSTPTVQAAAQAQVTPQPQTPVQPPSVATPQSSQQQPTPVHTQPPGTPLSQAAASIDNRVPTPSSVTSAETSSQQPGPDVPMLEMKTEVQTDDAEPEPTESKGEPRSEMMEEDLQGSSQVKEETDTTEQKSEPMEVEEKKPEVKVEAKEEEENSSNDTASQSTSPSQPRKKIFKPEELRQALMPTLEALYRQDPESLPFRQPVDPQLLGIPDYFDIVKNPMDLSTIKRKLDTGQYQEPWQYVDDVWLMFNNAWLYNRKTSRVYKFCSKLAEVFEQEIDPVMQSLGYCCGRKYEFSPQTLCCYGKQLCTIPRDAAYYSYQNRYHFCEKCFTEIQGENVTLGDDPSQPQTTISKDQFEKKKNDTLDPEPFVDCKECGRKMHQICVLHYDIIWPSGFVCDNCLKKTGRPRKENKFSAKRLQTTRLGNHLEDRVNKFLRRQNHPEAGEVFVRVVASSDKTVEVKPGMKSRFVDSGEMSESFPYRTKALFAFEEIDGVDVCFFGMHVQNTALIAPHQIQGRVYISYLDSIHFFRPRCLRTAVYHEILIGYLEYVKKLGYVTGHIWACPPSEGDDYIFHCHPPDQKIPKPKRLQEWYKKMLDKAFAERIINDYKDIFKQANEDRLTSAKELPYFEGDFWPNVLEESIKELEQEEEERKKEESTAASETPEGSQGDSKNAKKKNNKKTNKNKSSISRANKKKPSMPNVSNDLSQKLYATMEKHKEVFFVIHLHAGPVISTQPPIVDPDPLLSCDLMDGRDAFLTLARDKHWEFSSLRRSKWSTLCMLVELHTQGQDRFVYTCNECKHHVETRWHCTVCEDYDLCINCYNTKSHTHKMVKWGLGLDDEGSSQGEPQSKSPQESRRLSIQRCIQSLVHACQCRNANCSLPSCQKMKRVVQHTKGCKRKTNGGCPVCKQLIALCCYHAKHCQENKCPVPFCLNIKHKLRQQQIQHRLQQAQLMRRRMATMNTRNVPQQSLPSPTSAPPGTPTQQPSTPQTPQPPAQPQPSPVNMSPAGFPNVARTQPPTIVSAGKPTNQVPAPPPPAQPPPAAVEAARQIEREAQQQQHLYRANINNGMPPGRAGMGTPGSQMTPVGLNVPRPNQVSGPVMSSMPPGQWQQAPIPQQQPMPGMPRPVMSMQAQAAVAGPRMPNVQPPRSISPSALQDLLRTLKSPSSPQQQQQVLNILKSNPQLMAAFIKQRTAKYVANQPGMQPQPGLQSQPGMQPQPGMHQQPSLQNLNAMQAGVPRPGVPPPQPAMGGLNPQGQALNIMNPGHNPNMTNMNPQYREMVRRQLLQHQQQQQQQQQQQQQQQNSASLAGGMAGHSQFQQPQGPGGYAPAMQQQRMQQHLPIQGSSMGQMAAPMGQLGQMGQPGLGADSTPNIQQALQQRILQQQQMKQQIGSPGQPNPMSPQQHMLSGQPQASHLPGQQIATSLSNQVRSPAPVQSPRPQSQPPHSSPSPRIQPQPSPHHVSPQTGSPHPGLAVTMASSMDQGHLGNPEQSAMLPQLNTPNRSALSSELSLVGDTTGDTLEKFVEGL
UniProt Q7KZI7: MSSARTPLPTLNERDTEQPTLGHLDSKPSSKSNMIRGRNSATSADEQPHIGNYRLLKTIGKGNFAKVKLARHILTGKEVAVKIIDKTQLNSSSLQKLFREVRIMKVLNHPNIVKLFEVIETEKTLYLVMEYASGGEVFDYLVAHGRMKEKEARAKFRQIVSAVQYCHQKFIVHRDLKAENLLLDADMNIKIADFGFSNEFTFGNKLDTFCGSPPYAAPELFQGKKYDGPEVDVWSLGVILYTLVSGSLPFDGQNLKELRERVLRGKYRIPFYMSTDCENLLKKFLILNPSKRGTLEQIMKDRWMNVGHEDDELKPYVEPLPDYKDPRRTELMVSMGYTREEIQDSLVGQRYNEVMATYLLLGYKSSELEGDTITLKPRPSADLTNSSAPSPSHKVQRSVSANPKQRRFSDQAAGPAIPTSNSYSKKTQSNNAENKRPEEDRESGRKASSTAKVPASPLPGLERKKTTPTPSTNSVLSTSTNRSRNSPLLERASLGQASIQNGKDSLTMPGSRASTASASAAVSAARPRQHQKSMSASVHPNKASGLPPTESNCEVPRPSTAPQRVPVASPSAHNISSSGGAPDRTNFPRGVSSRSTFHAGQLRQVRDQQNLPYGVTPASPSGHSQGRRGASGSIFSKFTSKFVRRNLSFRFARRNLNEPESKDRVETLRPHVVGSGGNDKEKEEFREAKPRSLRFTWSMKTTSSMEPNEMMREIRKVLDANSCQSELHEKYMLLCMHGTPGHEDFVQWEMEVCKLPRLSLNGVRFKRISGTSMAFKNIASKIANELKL

Biological target: FLAG-tagged WT full-length CREB-binding protein (CBP-WT) (UniProt P45481)
Test: co-IP; 293A cells co-transfected with FLAG-tagged CBP and Myc-tagged MARK2 variants; lysed in low stringency NETN buffer (50 mM Tris-HCl pH 7.4, 150 mM NaCl, 1 mM EDTA, 1% NP-40); FLAG pull-down on protein A/G beads overnight; immunoblot for Myc-MARK2

- binding: binds weakly
Substance: Myc-tagged WT full-length microtubule affinity-regulating kinase 2 (MARK2-WT) (from UniProt Q7KZI7 1-788) (enzyme)
